Measured data: PubChem BioAssay AID1259424 (University of Nebraska Medical Center, 2018)

- Test: 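Rank knockdowns across the genome by resemblance to the KSR1 depletion profile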 (primary screen)
- Cells: human HCT116 colon cancer cells
- Reagents: siRNA pool against human genes, 50 nM
- Read-out: 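Log2 levels of six mRNAs (branched-DNA multiplex), adjusted by two reference genes and the non-targeting median, then scored against the average KSR1 knockdown pattern as Pearson r and euclidean distance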
- Direction: mean correlation with KSR1 profile: higher = expression change more like KSR1 knockdown; mean distance from KSR1 profile: higher = expression change less like KSR1 knockdown
The whole screen tested about 14,000 reagents; below is a part drawn at random. 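Higher correlation or smaller distance means closer resemblance to KSR1 loss; control wells, including KSR1 knockdowns, recur on many plates.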 The numbers tell different reagents against one gene apart. Not all columns of the deposit are shown. The record does not give: the time to read-out.

Knock-down of HOPX (HOP homeobox) resulted in: mean correlation with KSR1 profile 0.198; mean distance from KSR1 profile 1.62.
Depletion of CTDSP2 (CTD small phosphatase 2) resulted in: mean correlation with KSR1 profile -0.204; mean distance from KSR1 profile 2.18.
Knock-down of CEACAM3 (CEA cell adhesion molecule 3) came out at: mean correlation with KSR1 profile 0.243; mean distance from KSR1 profile 2.32.
Against CLSTN3 (calsyntenin 3) the deposit lists mean correlation with KSR1 profile 0.00836; mean distance from KSR1 profile 2.78.
After knock-down of CEP290 (centrosomal protein 290) #1, the screen gave mean correlation with KSR1 profile 0.631; mean distance from KSR1 profile 1.45.
CEP290 (centrosomal protein 290) #2 gave mean correlation with KSR1 profile -0.351; mean distance from KSR1 profile 2.7.
STXBP6 (syntaxin binding protein 6) gave mean correlation with KSR1 profile 0.371; mean distance from KSR1 profile 1.73.
For BEX2 (brain expressed X-linked 2), the entry reads mean correlation with KSR1 profile 0.196; mean distance from KSR1 profile 2.44.
CEND1 (cell cycle exit and neuronal differentiation 1) gave mean correlation with KSR1 profile -0.53; mean distance from KSR1 profile 2.32.
ANKIB1 (ankyrin repeat and IBR domain containing 1) showed mean correlation with KSR1 profile -0.292; mean distance from KSR1 profile 3.73.
Against CXCR2 (C-X-C motif chemokine receptor 2) the deposit lists mean correlation with KSR1 profile 0.669; mean distance from KSR1 profile 1.41.
L2HGDH (L-2-hydroxyglutarate dehydrogenase) gave mean correlation with KSR1 profile -0.465; mean distance from KSR1 profile 2.86.
